Here are results for one molecule from patent US20250115668A1.

No constants are given. Whether binding was seen depends on the method and setting. Binding can be weak; no strength is given.

The target in assay [1] is human OX40 on hPBMC T cells (CD3+CD8+ / CD3+CD4+) (human). The assay is described as follows: flow cytometry, Log(MFI), gated on CD3+CD8+ T cells of human PBMCs stimulated 72 h with plate-bound anti-CD3/anti-CD28; no isotype control shown. For orientation: Flow cytometry measures light scatter and fluorescence of single cells or particles in a stream.
The target is the same in assay [2]. The assay is described as follows: flow cytometry, Log(MFI), gated on CD3+CD4+ T cells of human PBMCs stimulated 72 h with plate-bound anti-CD3/anti-CD28; no isotype control shown.

B1: OX-H7-IgG1 (antibody, V domains shown)
VH: QITLKESGPTLVKPAQTLTLTCTFSGFSLSTSGVGVGWIRQPPGKALEWLALIYWDDDKLYSPSLKSRLTITKDTSKNQVVLAMTNMDPVDTATYYCAHSQLGRDDYWGQGTLVTVSS
VL: EIVLTQSPATLCLSPGERATLSCRASQSVSNYLAWYQQKPGQAPRLLIYAASSRATGIPARFSGSGSGTDFTLTISTLEPEDFAVYYCQQRRDWPPTFGQGTKVEIK
As for B1, the binding result in assay [1] and in assay [2] was “binds” each time.
